In patent US20100254975A1 (Amgen, published 2010):
Residue numbers refer to the chain shown, from its start. Results are given in words; binding and its absence hold for the method and conditions named. Binding calls can cover weak binding; strength is not graded here.

Legend:
[1] = biological target: cynomologous monkey alpha4beta7 (cynomologous monkey); assay: flow cytometry on T cells of cynomolgus monkeys
[2] = biological target: cynomologous monkey alpha4beta7 (cynomologous monkey); assay: free-site staining with PE-27G8 on naive T cells of treated cynomolgus monkeys
[3] = biological target: cynomologous monkey alpha4beta7 (cynomologous monkey); assay: receptor saturation on T cells of dosed cynomolgus monkeys, flow cytometry

B1: 27G8 (antibody, V domains shown)
VH: EVQLVESGGGLVQPGGSLRLSCAASGFTFSSYWMSWVRQASGKGLEWVANIKQDGSEKYYVDSVKGRFTISRDNAKNSLYLQMNSLRAEDTAVYYCAREGGYDWNYADYYGMDVWGQGTTVTVSS
VL: QSVLTQPPSVSEAPRQRVTISCSGSNSNIGNNPVNWYQLFPGRAPKLLIYHDDLLPSGVSDRFSGSRSGTSASLAISGLQSEDETDYYCTAWDDSLNGWVFGGGTKLTVL
notes: Fully human monoclonal from XenoMouse (human IgG2 or IgG4); lambda light chain; PE-conjugated in the cynomolgus study; also called 27G8L; 27G8H
- binding [1]: binds

B2: 18A11 (antibody, V domains shown)
VH: QVQLVQSGAEVKKPGASVKVSCKVSGYTLSDLSIHWVRQAPGKGLEWMGGFDPQDGETIYAQKFQGRVTMTEDTSTDTAYMELSSLKSEDTAVYYCATGSSSSWFDPWGQGTLVTVSS
VL: DIQMTQSPSSVSASVGDRVTITCRASQGISSWLAWYQQKPGKAPKLLIYGASNLESGVPSRFSGSGSGTDFTLTISSLQPEDFANYYCQQANSFPWTFGQGTKVEIK
notes: Fully human monoclonal from XenoMouse (human IgG2 or IgG4); kappa light chain; also called 18A11K; 18A11H
- binding [2]: binds
- binding [3]: binds

B3: 2F12 (antibody, V domains shown)
VH: B2 VH with L29V, S30T, I34M, S84R, K87R, A97T, G99E, S103A
VL: B2 VL with S12F, K45N, N53S, E55Q, S56N, S60L, N85T
notes: Fully human monoclonal from XenoMouse (human IgG2 or IgG4); kappa light chain; also called 2F12K; 2F12H
- binding [2]: binds
- binding [3]: binds

B4: 17C8 (antibody, V domains shown)
VH: QVQLVESGGGLVKPGGSLRLSCAASGFTFSDYYMSWIRQAPGKGLEWLSYISNSGSAMYYADSVKGRFTISRDNARNSLYLQMNSLRAEDTAVYYCAREYSSGWFFFESWGQGTLVTVSS
VL: EIVMTQSPATLSVSPGERATLSCRASQSVSSNLVWYQQKPGQAPRLLIYGASTRATGIPARFSGSGSGTDFTLTISSLQSEDFAVYYCQQYDDWPPLTFGGGTTVEIK
notes: Fully human monoclonal from XenoMouse (human IgG2 or IgG4); kappa light chain; also called 17C8K; 17C8H
- binding [2]: binds
- binding [3]: binds
